In patent US9421298B2, “Tissue adhesive based on nitrogen-modified aspartates” (Adhesys Medical GmbH, priority 2011, dated 2016):

Test: Adhesive force: overlapping pieces of muscle tissue glued with the polyurea system, tested by pulling
Parameters: key: ++: very good; +: good
Method: The time after which the polyurea system was no longer tacky (tack-free time) was measured by means of adhesion experiments using a glass rod. For this, the glass rod was brought into contact with the layer made of the polyurea system. If it no longer stayed stuck, the system was considered to be tack-free. Additionally, the adhesive force was determined by coating two pieces of muscle tissue (1=4 cm, h=0.3 cm, w=1 cm) at the ends 1 cm wide using the polyurea system and sticking them together so that they overlap. The adhesive force of the polyurea system was tested in each case by pulling.

[1] = polyurea system with Prepolymer A
[2] = polyurea system with Prepolymer B

Row | Structure (SMILES) | Adhesive force [1] | Adhesive force [2]
1 | CCOC(=O)CC(NCCCCCCNCCCCCCNC(CC(=O)OCC)C(=O)OCC)C(=O)OCC (stereo not shown) [Curing agent 2, triethyl 4-oxo-3-oxa-7,14,21-triazatricosane-6,22,23-tricarboxylate] | ++ | +
2 | CCOC(=O)CC(NCCCNCCCNC(CC(=O)OCC)C(=O)OCC)C(=O)OCC (stereo not shown) [Curing agent 3, Triethyl 4-oxo-3-oxa-7,11,15-triazaheptadecane-6,16,17-tricarboxylate] | ++ | +
3 | CCOC(=O)CC(NCCCC(C)CNC(CC(=O)OCC)C(=O)OCC)C(=O)OCC (stereo not shown) [Curing agent 6, tetraethyl 2,2′-[(2-methylpentane-1,5-diyl)diimino]dibutanedioate, reference compound] |  | +
4 | CCOC(=O)CC(NCCCCNCCCNC(CC(=O)OCC)C(=O)OCC)C(=O)OCC (stereo not shown) [Curing agent 1, triethyl 4-oxo-3-oxa-7,11,16-triazaoctadecane-6,17,18-tricarboxylate] | ++ | +
